Data as given in PMC11103130.
These are yes or no findings as the source states them, for the method shown. Binding seen in cells or lysates may run through a third protein. Some entries that bind do so weakly or less than the wild type. Tags and fused reporters may be left off the sequences shown.

The chains behind the UniProt entries cited, without tags or fusion partners.
UniProt P51608: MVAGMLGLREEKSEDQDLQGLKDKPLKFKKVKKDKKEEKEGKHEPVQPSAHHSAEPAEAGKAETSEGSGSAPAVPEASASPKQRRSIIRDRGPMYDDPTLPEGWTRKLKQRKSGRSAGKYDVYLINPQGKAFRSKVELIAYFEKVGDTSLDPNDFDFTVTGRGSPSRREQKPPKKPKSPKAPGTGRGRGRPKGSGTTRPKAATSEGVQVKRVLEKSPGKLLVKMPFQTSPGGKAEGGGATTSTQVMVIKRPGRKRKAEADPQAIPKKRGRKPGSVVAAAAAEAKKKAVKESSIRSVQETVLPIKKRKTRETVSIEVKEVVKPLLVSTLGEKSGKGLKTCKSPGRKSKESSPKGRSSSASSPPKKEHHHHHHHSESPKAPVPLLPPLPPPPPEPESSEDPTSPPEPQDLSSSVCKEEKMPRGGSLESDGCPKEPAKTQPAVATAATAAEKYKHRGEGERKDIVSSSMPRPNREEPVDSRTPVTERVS

Key:
Flag-SPESP1 = molecular target: T1, Flag-SPESP1 (UniProt Q6UW49); test: co-IP; semi-endogenous: Flag-SPESP1 with endogenous MeCP2; NP-40 IP lysis buffer with protease inhibitors, flag-coupled magnetic beads overnight at 4°C, washed three times with lysis buffer
T1 sequence: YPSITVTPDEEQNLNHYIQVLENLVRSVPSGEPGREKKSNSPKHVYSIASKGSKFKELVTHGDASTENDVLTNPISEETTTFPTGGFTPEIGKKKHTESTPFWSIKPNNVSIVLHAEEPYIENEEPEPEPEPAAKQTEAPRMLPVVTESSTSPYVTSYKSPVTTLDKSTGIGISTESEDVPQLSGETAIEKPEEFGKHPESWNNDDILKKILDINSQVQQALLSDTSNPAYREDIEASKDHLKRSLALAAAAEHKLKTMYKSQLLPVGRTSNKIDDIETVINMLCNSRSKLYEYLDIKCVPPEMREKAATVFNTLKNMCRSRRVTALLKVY

[1] = molecular target: T2, sperm equatorial segment protein 1 (SPESP1), endogenous (human (endogenous; cells of this co-IP not named, HDFs or 293T)) (UniProt Q6UW49); test: co-IP; endogenous co-immunoprecipitation of SPESP1 and MeCP2; cells and precipitating antibody not stated
T2 sequence: T1 sequence

binding (Flag-SPESP1): binds | binding [1]: binds
Substance: methyl-CpG-binding protein 2 (MeCP2), endogenous (from UniProt P51608 1-486)
